The whole screen tested about 320,000 compounds, of which about 2,100 (0.66%) were called active. Inconclusive results, whose numbers are uncertain, are shown with a selection of clear calls. Calls come from the whole dose curve; as a rule, active = well fitted inhibition curve with a large enough effect in the signal ratio, with a control signal flat (not every such curve was filed as active); inconclusive = small, poorly fitted or top-dose-only effect, or effect the other way, or a change in a side signal; inactive = flat fitted curve, though single readings scatter; the % refers to the signal ratio. A potency beside an inconclusive call is a rough fit, not a confirmed value.
Assay: qHTS Assay for Lipid Storage Modulators in Drosophila S3 Cells
Conditions: BODIPY lipid droplet fluorescence, 18-24 h, cells fed with added oleic acid; lipid storage change, negative = inhibition: at 46.1 µM (top of the series) unless noted
In short: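 Drosophila S3 cells got compounds at several concentrations plus oleic acid (400 uM solution). Laser-scanning cytometry with 488 nm excitation read lipid droplets at 500-530 nm and cells at 575-640 nm. Percent activity was relative to 20 uM Triacsin C.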
% is set by controls: 0 for no effect and ±100 for the full control effect; potency is the fitted concentration of half-maximal effect.

Lipid storage change, negative = inhibition, inconclusive:
Cc1c(NC(=O)C(C)C)cccc1-c1nc2ncccc2o1 -71.7%
O=C(CN1CCN(C(C(=O)Nc2ccc(F)cc2)c2ccccc2)CC1)NC1CC1 (centres undefined) 0.522%
CN(C)/C=C/C(=O)c1cnc(-c2cccc(Cl)c2)s1 -17.9% [at 9.22 µM]
Oc1c(Cl)cc(Cl)cc1CNc1ccccn1 -64%
Cc1sc(NC(=S)NC(=O)C2CCCCC2)c(C(N)=O)c1C -34.3%
O=C(CSc1nnc2ccccn12)Nc1cccc(-c2nc3ccccc3s2)c1 25.1%
COC(=O)C1=C(N)OC2=C(C(=O)CC(C)(C)C2)C1c1cccnc1 (centres undefined) 26%
CCOc1ccccc1NC(=O)c1cc(-c2ccncc2)nc2c(Cl)cccc12 38.2%
CCOC(=O)c1c(C)oc2c1c(C(c1cccnc1)N1CCOCC1)c(O)c1ccccc12 (centres undefined) 2.5%
O=C(NCc1ccc(N2CCCC2=O)cc1)c1cc(COc2c(F)cccc2F)on1 -36.8%
OCCN1C2=NCCCN2c2ccccc21 -22.2%
O=C(NCc1ccccn1)c1c(Cl)cccc1Cl -9.19%
CC(=O)c1ccccc1OCc1ccc(S(=O)(=O)Cc2ccccc2)cc1 -55.3%
O=C(Nc1nccs1)c1c(O)c2cccc3c2n(c1=O)CCC3 10.9%
O=C(NCc1ccccc1)c1ccc(C(=O)N(C2CCCCC2)C2CCCCC2)cc1 -25.2%
C=CCN(c1ccc(F)cc1)S(=O)(=O)c1cc(C(=O)NC2CCC(O)CC2)ccc1Cl (centres undefined) 18.8%
Nc1nc2c(ncn2COCCO)c(=O)[nH]1 0.52%
Cc1cccc(C(=O)Nc2ccc(C(=O)N3CCCCC3C)cc2)c1 (centres undefined) -45.3%
CS(=O)(=O)c1ccc(-n2c(=O)n(Cc3ccccc3)c(=O)c3[nH]cnc32)cc1 6.53%
CCN(CC)CCCNCC(=O)Nc1ccc2c(c1)CCC2 -102%
COc1ccc(NC(=O)c2c(C)noc2C(C)C)cc1S(=O)(=O)N1CCCCC1 24.9%
CC1Sc2n(c3ccccc3[n+]2C)N=C1c1ccccc1 (centres undefined) -27.6%
Cc1ccnc(NC(=O)CCC(=O)N(CC(=O)NCc2ccc(F)cc2)c2ccc(F)cc2)c1 -45.1%
COC(=O)c1cc(NC(=O)c2c(F)c(F)c(F)c(F)c2F)cc(C(=O)OC)c1 -1.56%
O=C(Nc1ccccc1O)N1c2ccccc2Sc2ccccc21 71.5%
CC(C)c1ccc(C(CC(=O)c2ccc(Cl)cc2)C(=O)O)cc1 (centres undefined) 11.4%

An excerpt from above in order of count of non-hydrogen atoms, high to low.
Lipid storage change, negative = inhibition, inconclusive:
O=C(Nc1nccs1)c1c(O)c2cccc3c2n(c1=O)CCC3 10.9%
Cc1sc(NC(=S)NC(=O)C2CCCCC2)c(C(N)=O)c1C -34.3%
OCCN1C2=NCCCN2c2ccccc21 -22.2%

Following part.

Lipid storage change, negative = inhibition, inactive:
COc1ccc(NC(=O)CN(C)C(=O)c2ccc(COc3ccccc3)cc2)cc1 16.5%
COc1ccc2[nH]c(=O)c(CN(C(=O)C3CCCO3)c3ccc(C)cc3)cc2c1 (centres undefined) 22.5%
CC(C)c1cc(C(=O)O)c2cnn(C(C)C)c2n1 -12.7%

Potency, inconclusive:
COc1ccccc1CN(Cc1ccco1)S(=O)(=O)c1ccc(-n2cnnn2)c(OC)c1 6.51 µM [activator, single point]
Cc1cccc(-c2nc(CN3CCN(Cc4cccc(F)c4)CC3)c(C)o2)c1 0.058 µM [activator, full curve, poor fit]
CC(C(=O)OCC(=O)Nc1ccc2c(c1)OCO2)N1C(=O)c2ccccc2C1=O (centres undefined) 29.1 µM [activator, single point]
Cc1cc(=O)oc2cc(NC(=O)C3CC(=O)N(Cc4ccccc4)C3)ccc12 (centres undefined) 29.1 µM [activator, single point]
Cc1ccc(OCC(=O)N/N=C/c2cccc3cccnc23)cc1 16.4 µM [falling, single point]
Cc1cc(C)n2nc(C(=O)OCC(=O)NNC(=O)c3ccccc3)nc2n1 29.1 µM [activator, single point]
Nc1[nH]c(=O)[nH]c(=O)c1N=Nc1ccc(C(=O)O)cc1 6.51 µM [activator, single point]
COC(=O)c1cc(NC(=O)CSc2nnc(CN3CCOCC3)n2C)ccc1Cl 4.11 µM [activator, single point]

outcome, inactive:
CC(=O)c1cc(C(=O)Nc2ccc3ccccc3c2)c(C)o1 inactive [at 46.1 µM]
COC(=O)CN1C(=S)N(C)C(=O)/C1=C/c1cccs1 inactive [at 46.1 µM]
